Experimental data from patent US20170081401A1 (CLOSED JOINT STOCK COMPANY BIOCAD, published 2017).
No constants are given. Whether binding was seen depends on the method and setting. Some results given as binding are weak or reduced against the parent protein; the word gives no strength.

By UniProt entry, the sequences of proteins in these tests, tags left out. Where a name states a change or a piece, a line headed by the entry shows the natural chain unless it says otherwise. Residues count along the entry.
UniProt Q96F46: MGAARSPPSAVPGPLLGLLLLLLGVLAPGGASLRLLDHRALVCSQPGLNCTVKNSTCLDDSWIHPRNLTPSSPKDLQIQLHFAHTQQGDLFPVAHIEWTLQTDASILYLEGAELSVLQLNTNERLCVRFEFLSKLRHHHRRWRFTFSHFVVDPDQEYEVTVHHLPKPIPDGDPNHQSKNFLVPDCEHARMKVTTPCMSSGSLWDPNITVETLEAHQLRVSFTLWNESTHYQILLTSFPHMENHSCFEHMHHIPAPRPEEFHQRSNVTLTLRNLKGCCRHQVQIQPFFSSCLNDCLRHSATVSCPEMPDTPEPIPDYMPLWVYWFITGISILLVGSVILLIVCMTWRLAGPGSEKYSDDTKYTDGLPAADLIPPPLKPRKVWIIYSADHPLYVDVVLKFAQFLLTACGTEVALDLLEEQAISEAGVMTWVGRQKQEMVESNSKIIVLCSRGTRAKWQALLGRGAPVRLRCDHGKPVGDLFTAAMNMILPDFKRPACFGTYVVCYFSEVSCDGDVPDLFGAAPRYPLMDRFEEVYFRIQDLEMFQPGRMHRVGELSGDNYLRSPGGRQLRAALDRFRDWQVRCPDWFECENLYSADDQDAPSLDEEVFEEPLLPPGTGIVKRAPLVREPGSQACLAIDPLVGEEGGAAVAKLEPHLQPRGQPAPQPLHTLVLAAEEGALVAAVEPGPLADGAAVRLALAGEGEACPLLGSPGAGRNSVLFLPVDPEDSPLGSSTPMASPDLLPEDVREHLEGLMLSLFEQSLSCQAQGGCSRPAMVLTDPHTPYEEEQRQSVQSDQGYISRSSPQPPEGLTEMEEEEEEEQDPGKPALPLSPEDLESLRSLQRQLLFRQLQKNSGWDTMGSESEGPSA
UniProt Q16552, residues 24-155: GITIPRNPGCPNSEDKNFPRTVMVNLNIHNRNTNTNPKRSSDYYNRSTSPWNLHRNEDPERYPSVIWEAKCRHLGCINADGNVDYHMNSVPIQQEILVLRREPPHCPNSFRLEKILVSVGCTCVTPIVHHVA

Molecular target: IL-17RA-Fc receptor (R&D Systems) (Homo sapiens (Human)) (UniProt Q96F46)
Assay: ELISA, coated IL-17RA-Fc 1 ug/ml, IL-17A-His6-Flag 0.4 ug/ml without blocking Fab, detection with anti-FLAG M2 and anti-mouse IgG-HRP, A450

binding: binds
Substance: IL-17A-His6-Flag (from UniProt Q16552 24-155) (ligand)
